The record followed here is patent US20250011316A1 (Wake Forest University Health Sciences, priority 2022, published 2025).

This data set in a line: general procedure: peptide synthesis; Rink Amide resin (0.7 mmol/g). The settings on record: whole synthesis; for final LC-MS purity: 215 nm; for final purity (method not given): ELSD.
Where [1] appears, read: scale of the general procedure 5 gram resin, TFA salt converted to HCl salt.
Where [2] appears, read: scale 0.25 mmol, TFA salt converted to HCl salt.

With “H-Cha-D-Arg-Cha-D-Arg-Cha-D-Arg-NH2 HCl salt”, for the setting “scale 2.8 mmol, HCl salt”, the “final LC-MS purity” value is reported as 92.5% (215 nm), the “final purity (method not given)” value is recorded as 99.7% (ELSD), the isolated mass is 890 mg and the isolated yield worked out at 29%.

As for “N3(CH2)5C(O)-Cha-D-Arg-Cha-D-Arg-Cha-D-Arg-NH2”, under setting [1], the “final LC-MS purity” value was 78.0% and the “final purity (method not given)” value came to 99.6%. Also, the isolated mass (scale 2.5 mmol, HCl salt) is 580 mg. Besides, the isolated yield (scale 2.5 mmol, TFA salt converted to HCl salt) was 20%.

On to “N3(CH2CH2O)6CH2CH2C(O)-Cha-D-Arg-Cha-D-Arg-Cha-D-Arg-NH2 HCl salt”, for which, under setting [1], the “final LC-MS purity” value was found to be 97.8% and the “final purity (method not given)” value is 99.6%. Also, the isolated mass (scale 0.25 mmol, HCl salt) is on record as 39 mg. For the same substance, under setting [2], the isolated yield turned out to be 11%.

Regarding “N3(CH2CH2O)9CH2CH2C(O)-Cha-D-Arg-Cha-D-Arg-Cha-D-Arg-NH2 HCl salt”, under setting [1], the “final LC-MS purity” value amounted to 98.4% and the “final purity (method not given)” value was found to be 99.8%. Also, the isolated mass (scale 0.25 mmol, HCl salt) stood at 34 mg. Under setting [2], the isolated yield is on record as 8.8%.

For the substance “Tert-butyl (R)-4-(4-((3-((3-methoxy-3-oxoprop-1-en-2-yl)amino)-3-oxoprop-1-en-2-yl)carbamoyl)thiazol-2-yl)-2-methylpiperazine-1-carboxylate”, the “final LC-MS purity” value (scale of the general procedure 5 gram resin, HCl salt) came out at 83.7%. In addition, under “scale 0.25 mmol, HCl salt”, the isolated mass stood at 53 mg and the isolated yield turned out to be 17%.
